For at least one compound, name, drawing or mass did not settle the structure.
Assay: Solubility of the base 2,4-diamino-5-methyl-6-[(3,4,5-trimethoxyanilino)methyl]quinazoline in aqueous acids (shake-out)
Assay type: physicochemical
Conditions: Table III; acid conc. .065 M, acid/base 1/1

COc1cc(NCc2ccc3nc(N)nc(N)c3c2C)cc(OC)c1OC [Ethoxyacetate]
Filtrate pH: 4.15

— patent publication US4376858A, “2-4-Diamino-5-methyl-6-[(3,4,5-trimethoxyanilino)methyl]quinazoline salts” (Warner Lambert Company, priority 1982, dated 1983)
